Assay results published in patent US8637511B2, “Aminopyrimidines useful as kinase inhibitors” (Vertex Pharmaceuticals Incorporated, priority 2005, dated 2014).
Some entries share one result that the patent states for a list of compounds.

system: not listed separately; assay: Microsomal stability assay; assay type: in vitro ADME; conditions: after 30 minutes

Row | SMILES | stability to human liver microsomes, % remaining
1 | Cc1cc(Nc2cc(N3CC(O)(C4CC4)C3)nc(Sc3ccc4nc(C(F)(F)F)n(C)c4c3)n2)[nH]n1 [Compound 155] | > 50%
2 | Cc1cc(Nc2cc(N3CC(F)(C4CC4)C3)nc(Sc3ccc(NC(=O)CC(F)(F)F)nc3)n2)[nH]n1 [Compound 211] | > 50%
3 | O=C(CC(F)(F)F)Nc1ccc(Sc2nc(Nc3cc[nH]n3)cc(N3CC(F)(C4CC4)C3)n2)cc1 [Compound 148] | > 50%
4 | Cc1cc(Nc2cc(N3CC(F)(C4CC4)C3)nc(Sc3ccc(-c4ncc(C)o4)cc3)n2)[nH]n1 [Compound 175] | > 50%
5 | COC1CN(c2cc(Nc3cc(C)[nH]n3)nc(Sc3ccc(NC(=O)c4ccccc4Cl)cc3)n2)C1 [Compound 12] | > 50%
6 | Cc1cc(Nc2cc(N3CCC3)nc(Sc3ccc(C(=O)Nc4ccccc4Cl)cc3)n2)[nH]n1 [Compound 48] | > 50%
7 | Cc1cc(Nc2cc(N3CCC3)nc(Sc3ccc(NS(C)(=O)=O)cc3)n2)[nH]n1 [Compound 150] | > 50%
8 | Cc1cc(Nc2cc(N3CC(N4CCCC4)C3)nc(Sc3ccc4ncccc4c3)n2)n[nH]1 [Compound 159] | > 50%
9 | Cc1cc(Nc2cc(N3CCC3)nc(Sc3ccc(NC(=O)C4CC4)cc3)n2)n[nH]1 [Compound 17] | > 50%
10 | CCC(=O)Nc1ccc(Sc2nc(Nc3cc(C)n[nH]3)cc(N3CC(N4CCOCC4)C3)n2)cc1 [Compound 68] | > 50%
11 | CCC(=O)Nc1ccc(Sc2nc(Nc3cc(C)n[nH]3)cc(N3CC(O)(C(C)CC)C3)n2)cc1 (centres unmarked) [Compound 100] | > 50%
12 | CCC(=O)Nc1ccc(Sc2nc(Nc3cc(C4CC4)n[nH]3)cc(N3CC(N4CCOCC4)C3)n2)cc1 [Compound 78] | > 50%
13 | Cc1cc(Nc2cc(N3CCC3)nc(Sc3ccc(NC(=O)c4ccc(-c5ccccc5)cc4Cl)cc3)n2)[nH]n1 [Compound 83] | > 50%
14 | Cc1cc(Nc2cc(N3CC(N4CCOCC4)C3)nc(Sc3ccc(NC(=O)CC(F)(F)F)cc3)n2)[nH]n1 [Compound 199] | > 50%
15 | CC(=O)Nc1cccc(Sc2nc(Nc3cc(C)n[nH]3)cc(N3CC(F)(C4CC4)C3)n2)c1 [Compound 188] | > 50%
16 | Cc1cc(Nc2cc(N3CC(F)(C4CC4)C3)nc(Oc3ccc(NC(=O)CC(F)(F)F)cc3)n2)[nH]n1 [Compound 144] | > 50%
17 | COc1ccccc1C(=O)Nc1ccc(Sc2nc(Nc3cc(C)[nH]n3)cc(N3CCC3)n2)cc1 [Compound 32] | > 50%
18 | CC(C)=C1CN(c2cc(Nc3cc(C)n[nH]3)nc(Sc3ccc(NC(=O)CC(F)(F)F)cc3)n2)C1 [Compound 184] | > 50%
19 | Cc1cc(Nc2cc(N3CC(O)(C4CC4)C3)nc(Sc3ccc(NC(=O)C4CC4)c(F)c3)n2)[nH]n1 [Compound 109] | > 50%
20 | Cc1cc(Nc2cc(N3CC(C)(C(C)(C)F)C3)nc(Sc3ccc(NC(=O)CC(F)(F)F)cc3)n2)[nH]n1 [Compound 183] | > 50%
21 | Cc1cnc(Nc2cc(N3CC(F)(C4CC4)C3)nc(Oc3ccc(NC(=O)CC(F)(F)F)cc3)n2)s1 [Compound 181] | > 50%

same assay, conditions: after 60 minutes

Row | SMILES | stability to human liver microsomes, % remaining
22 | Cc1cc(Nc2cc(N3CC(O)(C4CC4)C3)nc(Sc3ccc4nc(C(F)(F)F)n(C)c4c3)n2)[nH]n1 [Compound 155] | > 50%
23 | COC1CN(c2cc(Nc3cc(C)[nH]n3)nc(Sc3ccc(NC(=O)c4ccccc4Cl)cc3)n2)C1 [Compound 12] | > 50%
24 | Cc1cc(Nc2cc(N3CCC3)nc(Sc3ccc(NS(C)(=O)=O)cc3)n2)[nH]n1 [Compound 150] | > 50%
25 | CCC(=O)Nc1ccc(Sc2nc(Nc3cc(C)n[nH]3)cc(N3CC(N4CCOCC4)C3)n2)cc1 [Compound 68] | > 50%
26 | Cc1cc(Nc2cc(N3CC(F)(C4CC4)C3)nc(Oc3ccc(NC(=O)CC(F)(F)F)cc3)n2)[nH]n1 [Compound 144] | > 50%
27 | Cc1cc(Nc2cc(N3CC(O)(C4CC4)C3)nc(Sc3ccc(NC(=O)C4CC4)c(F)c3)n2)[nH]n1 [Compound 109] | > 50%

biological target: T1, Aurora-2 (Aurora A) (Homo sapiens, UniProt O14965); assay: Aurora-2 (Aurora A) inhibition assay, coupled enzyme; assay type: biochemical; conditions: read-out: Aurora A kinase Ki value
T1 sequence (O14965 1-403): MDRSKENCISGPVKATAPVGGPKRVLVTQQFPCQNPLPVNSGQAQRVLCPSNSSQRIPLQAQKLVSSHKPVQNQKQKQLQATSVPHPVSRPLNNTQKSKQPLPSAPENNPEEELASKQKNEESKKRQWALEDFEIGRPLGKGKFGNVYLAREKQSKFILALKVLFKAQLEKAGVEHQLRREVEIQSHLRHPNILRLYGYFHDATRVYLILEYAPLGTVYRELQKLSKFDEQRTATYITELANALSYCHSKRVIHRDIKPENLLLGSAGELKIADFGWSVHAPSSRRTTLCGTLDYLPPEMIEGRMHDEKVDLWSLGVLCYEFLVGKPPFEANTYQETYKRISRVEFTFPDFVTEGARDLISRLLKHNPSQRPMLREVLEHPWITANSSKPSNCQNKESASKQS
Method: Assays were carried out in a mixture of 100 mM Hepes (pH7.5), 10 mM MgCl2, 1 mM DTT, 25 mM NaCl, 2.5 mM phosphoenolpyruvate, 300 μM NADH, 30 μg/ml pyruvate kinase and 10 μg/ml lactate dehydrogenase. […] Assays were carried out at 30° C. and in the presence of 40 nM Aurora-2.
The plate was preincubated for 10 minutes at 30° C. and the reaction initiated by addition of 10 μl of Aurora-2. Initial reaction rates were determined with a Molecular Devices SpectraMax Plus plate reader over a 10 minute time course. IC50 and Ki data were calculated from non-linear regression analysis using the Prism software package (GraphPad Prism version 3.0cx for Macintosh, GraphPad Software, San Diego Calif., USA).

Row | SMILES | Ki
28 | Cc1cc(Nc2cc(N3CC(F)(C4CC4)C3)nc(Sc3ccc(NC(=O)CC(F)(F)F)nc3)n2)[nH]n1 [Compound 211] | ≤ 1 nM
29 | CCC(=O)Nc1ccc(Sc2nc(Nc3cc(C)n[nH]3)cc(N3CC(O)(C(C)CC)C3)n2)cc1 (centres unmarked) [Compound 100] | ≤ 1 nM

same assay, conditions: read-out: Aurora A kinase activity, Ki

Row | SMILES | Ki
30 | Cc1cc(Nc2cc(N3CC(O)(C4CC4)C3)nc(Sc3ccc4nc(C(F)(F)F)n(C)c4c3)n2)[nH]n1 [Compound 155] | < 25 nM
31 | Cc1cc(Nc2cc(N3CC(F)(C4CC4)C3)nc(Sc3ccc(NC(=O)CC(F)(F)F)nc3)n2)[nH]n1 [Compound 211] | < 25 nM
32 | O=C(CC(F)(F)F)Nc1ccc(Sc2nc(Nc3cc[nH]n3)cc(N3CC(F)(C4CC4)C3)n2)cc1 [Compound 148] | < 25 nM
33 | Cc1cc(Nc2cc(N3CC(F)(C4CC4)C3)nc(Sc3ccc(-c4ncc(C)o4)cc3)n2)[nH]n1 [Compound 175] | < 25 nM
34 | COC1CN(c2cc(Nc3cc(C)[nH]n3)nc(Sc3ccc(NC(=O)c4ccccc4Cl)cc3)n2)C1 [Compound 12] | < 25 nM
35 | Cc1cc(Nc2cc(N3CCC3)nc(Sc3ccc(C(=O)Nc4ccccc4Cl)cc3)n2)[nH]n1 [Compound 48] | < 25 nM
36 | Cc1cc(Nc2cc(N3CCC3)nc(Sc3ccc(NS(C)(=O)=O)cc3)n2)[nH]n1 [Compound 150] | < 25 nM
37 | Cc1cc(Nc2cc(N3CC(N4CCCC4)C3)nc(Sc3ccc4ncccc4c3)n2)n[nH]1 [Compound 159] | < 25 nM
38 | Cc1cc(Nc2cc(N3CCC3)nc(Sc3ccc(NC(=O)C4CC4)cc3)n2)n[nH]1 [Compound 17] | < 25 nM
39 | CCC(=O)Nc1ccc(Sc2nc(Nc3cc(C)n[nH]3)cc(N3CC(N4CCOCC4)C3)n2)cc1 [Compound 68] | < 25 nM
40 | CCC(=O)Nc1ccc(Sc2nc(Nc3cc(C)n[nH]3)cc(N3CC(O)(C(C)CC)C3)n2)cc1 (centres unmarked) [Compound 100] | < 25 nM
41 | CCC(=O)Nc1ccc(Sc2nc(Nc3cc(C4CC4)n[nH]3)cc(N3CC(N4CCOCC4)C3)n2)cc1 [Compound 78] | < 25 nM
42 | Cc1cc(Nc2cc(N3CCC3)nc(Sc3ccc(NC(=O)c4ccc(-c5ccccc5)cc4Cl)cc3)n2)[nH]n1 [Compound 83] | < 25 nM
43 | Cc1cc(Nc2cc(N3CC(N4CCOCC4)C3)nc(Sc3ccc(NC(=O)CC(F)(F)F)cc3)n2)[nH]n1 [Compound 199] | < 25 nM
44 | CC(=O)Nc1cccc(Sc2nc(Nc3cc(C)n[nH]3)cc(N3CC(F)(C4CC4)C3)n2)c1 [Compound 188] | < 25 nM
45 | Cc1cc(Nc2cc(N3CC(F)(C4CC4)C3)nc(Oc3ccc(NC(=O)CC(F)(F)F)cc3)n2)[nH]n1 [Compound 144] | < 25 nM
46 | COc1ccccc1C(=O)Nc1ccc(Sc2nc(Nc3cc(C)[nH]n3)cc(N3CCC3)n2)cc1 [Compound 32] | < 25 nM
47 | CC(C)=C1CN(c2cc(Nc3cc(C)n[nH]3)nc(Sc3ccc(NC(=O)CC(F)(F)F)cc3)n2)C1 [Compound 184] | < 25 nM
48 | Cc1cc(Nc2cc(N3CC(O)(C4CC4)C3)nc(Sc3ccc(NC(=O)C4CC4)c(F)c3)n2)[nH]n1 [Compound 109] | < 25 nM
49 | Cc1cc(Nc2cc(N3CC(C)(C(C)(C)F)C3)nc(Sc3ccc(NC(=O)CC(F)(F)F)cc3)n2)[nH]n1 [Compound 183] | < 25 nM
50 | Cc1cnc(Nc2cc(N3CC(F)(C4CC4)C3)nc(Oc3ccc(NC(=O)CC(F)(F)F)cc3)n2)s1 [Compound 181] | < 25 nM
